Measurements reported in PubChem BioAssay AID588590 (National Center for Advancing Translational Sciences (NCATS), 2011).
“And” between values parts separate entries of the source, which are not always exact repeats. Equal entries are not always repeated. Out of some 390,000 compounds screened, about 4,000 (1%) were called active. The shares of active, inactive and inconclusive entries below differ from those in the screen. Calls follow the shape of the dose curve; as a rule, active = well fitted inhibition curve with a large enough effect; inconclusive = small, poorly fitted or top-dose-only effect, or another doubt; inactive = no such curve, though single readings can be large or run the other way. Where the call is inconclusive, the potency comes from a doubtful curve fit.

The chains behind the UniProt entries cited, without tags or fusion partners. Where a name states a change or a piece, a line headed by the entry shows the natural chain unless it says otherwise.
UniProt Q9UNA4: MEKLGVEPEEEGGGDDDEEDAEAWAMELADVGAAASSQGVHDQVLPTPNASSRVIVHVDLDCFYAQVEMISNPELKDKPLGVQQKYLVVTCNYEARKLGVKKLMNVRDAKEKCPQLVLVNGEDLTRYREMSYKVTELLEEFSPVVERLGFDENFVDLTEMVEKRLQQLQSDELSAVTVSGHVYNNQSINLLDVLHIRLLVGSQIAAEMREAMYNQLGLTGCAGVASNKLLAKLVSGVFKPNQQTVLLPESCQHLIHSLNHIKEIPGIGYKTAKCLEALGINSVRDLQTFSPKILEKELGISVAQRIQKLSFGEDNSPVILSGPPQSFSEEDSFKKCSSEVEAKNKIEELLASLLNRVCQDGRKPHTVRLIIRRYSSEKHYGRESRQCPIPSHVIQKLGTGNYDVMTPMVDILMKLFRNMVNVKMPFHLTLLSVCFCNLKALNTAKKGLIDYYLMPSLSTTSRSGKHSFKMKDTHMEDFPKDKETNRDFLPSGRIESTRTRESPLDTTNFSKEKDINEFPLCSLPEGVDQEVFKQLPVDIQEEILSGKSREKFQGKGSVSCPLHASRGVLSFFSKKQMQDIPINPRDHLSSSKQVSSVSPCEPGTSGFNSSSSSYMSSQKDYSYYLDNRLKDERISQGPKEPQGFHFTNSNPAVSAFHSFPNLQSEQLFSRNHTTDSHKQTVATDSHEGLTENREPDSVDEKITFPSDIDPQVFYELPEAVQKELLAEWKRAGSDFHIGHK

target: DNA polymerase iota (Homo sapiens) (UniProt Q9UNA4); assay: qHTS for Inhibitors of Polymerase Iota; settings: Pol iota fluorescent replication assay, 10 min; series mostly up to 115 µM
Outline: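 Fluorescent replication assay read twice, at 0 min and 10 min after adding 50 nM (final) substrate. Enzyme (10 nM) and compounds were first incubated 15 min at room temperature; enzyme-free buffer wells were negative controls.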
Potency is read from the fitted curve at half-maximal effect.

Potency, inconclusive:
CC(C)c1ccc(CN2CCN(C(=O)CCl)CC2)cc1 15.8 µM [inhibitor, partial curve, poor fit]
COc1ccc(OC)c2nc3c(C(=O)NCCN(C)C)cccc3nc12 56.2 µM [inhibitor, partial curve, poor fit]
CCOc1ccc(OCc2ccc(C(=O)N3CCCC(C)C3)cc2)cc1 (stereo not drawn) 63.1 µM [inhibitor, partial curve, poor fit]
Cc1ccc(S(=O)(=O)/N=C/c2c(O)ccc3ccccc23)cc1 35.5 µM [inhibitor, partial curve, poor fit]
COc1cccc(-c2cn3c(n2)sc2cc(C(=O)NC4CCCCCC4)ccc23)c1 100 µM [inhibitor, single point]
CCC(Sc1nc2ccccc2c2nc(CCc3c(C)n[nH]c3C)nn12)C(=O)Nc1ccc(F)cc1 (stereo not drawn) 89.1 µM [inhibitor, single point]
Cc1ccc(NC(=O)CNCC(c2ccccc2)N(C)C)cc1F (stereo not drawn) 22.4 µM [inhibitor, single point]
COc1cccc(C2CC(c3ccc(Cl)cc3Cl)n3nc(N)nc3N2)c1 (stereo not drawn) 56.2 µM [inhibitor, partial curve, poor fit]
CCOC(=O)/C=C/C(=O)OCC(=O)Nc1cccc(Cl)c1Cl 11.2 µM [inhibitor, partial curve, poor fit]
C=CCSc1nnc(-c2ccncc2)n1-c1ccc(OCC)cc1 112 µM [inhibitor, partial curve, poor fit]
COc1ccccc1C(=O)NC(=S)Nc1cccc2cc(O)ccc12 35.5 µM [inhibitor, partial curve, poor fit]
Cc1ccc(N=Nc2c(=O)[nH]n3c(=O)cc(C)[nH]c23)cc1 31.6 µM [inhibitor, single point]
O=C(NCc1ccccc1)OCCN1CCN(Cc2ccccc2)CCC1=O 50.1 µM [inhibitor, single point]
O=C(COc1ccc(Cl)cc1Cl)NN1C(=O)/C(=C\c2ccc(Cl)cc2)SC1=S 15.8 µM [inhibitor, partial curve]
O=C(CCS(=O)(=O)c1ccccc1)Nc1ccc2c(c1)OCO2 20 µM [inhibitor, partial curve, poor fit]
O=C(CC1C(=O)NCCN1CC1CCCCC1)NCCc1ccc(F)cc1 (stereo not drawn) 10 µM [inhibitor, partial curve, poor fit]
O=C(N/N=C/c1cc(Br)c(Br)o1)c1ccc2c(c1)OCCO2 12.6 µM [inhibitor, full curve, poor fit]
Cc1ccc(C(=O)CN(C(=O)c2ccc(Cl)c(Cl)c2)N2C(=O)C3CCCCC3C2=O)cc1 (stereo not drawn) 100 µM [inhibitor, partial curve, poor fit]
CN1CCN(CCOc2cccc(Cl)c2)CC1 28.2 µM [inhibitor, single point]
COc1ccccc1NC(=O)CNS(=O)(=O)c1ccccc1 112 µM [inhibitor, single point]
C/C(N)=C(/C#N)C(=O)CSc1nnc(Nc2cccc(C)c2C)s1 63.1 µM [inhibitor, partial curve, poor fit] and 79.4 µM [inhibitor, partial curve]
Cc1ccc2oc(-c3ccc(C)c(NC(=O)COc4ccc(Cl)cc4C)c3)nc2c1 89.1 µM [inhibitor, partial curve, poor fit]
O=C(Nc1ccc(NC(=S)NC(=O)C(c2ccccc2)c2ccccc2)cc1)c1ccccc1 70.8 µM [inhibitor, partial curve, poor fit]
CCOC(=O)C1=C(C)Nc2ccccc2N/C1=N\S(=O)(=O)c1cc(C(=O)O)ccc1Cl 79.4 µM [inhibitor, partial curve]
CCN(CC)P(=O)(Nc1ccccc1Br)c1ccc(N(C)C)cc1NC(=O)c1ccco1 (stereo not drawn) 89.1 µM [inhibitor, partial curve, poor fit]
CSc1ccccc1NC(=O)CCS(=O)(=O)c1nc(-c2ccc3c(c2)OCO3)cc(C(F)(F)F)n1 14.1 µM [inhibitor, full curve, poor fit]
CC(=O)N(/C=C1\SC(=S)N(c2ccccc2)C1=O)c1ccccc1 20 µM [inhibitor, full curve]
Cc1nn(-c2ccccc2)c(C)c1/C=C/C(=O)OCC(=O)Nc1ccc(C(N)=O)cc1 2.82 µM [inhibitor, full curve, poor fit]
Cn1nnc2cc(C(=O)NCc3ccco3)ccc21 10 µM [inhibitor, full curve, poor fit]
COc1ccc(-n2nc3c(c2NC(=O)c2ccc4c(c2)OCO4)CS(=O)(=O)C3)cc1 50.1 µM [inhibitor, partial curve, poor fit]
Cc1cccnc1NC(=O)CSc1ncnc2sc(C)c(C)c12 50.1 µM [inhibitor, partial curve, poor fit]
Cc1sc2ncn(CC(=O)NCCCC(=O)N3CCN(c4ncccn4)CC3)c(=O)c2c1C 2.51 µM [inhibitor, full curve]
CN1CCN(C(=O)N2c3ccccc3C=Cc3ccccc32)CC1 0.708 µM [inhibitor, partial curve, poor fit]
CC1C(C#N)=C(N)OC2=C1C(=O)CC(C)(C)C2 (stereo not drawn) 100 µM [inhibitor, partial curve, poor fit]
COc1ccc(N2C(=O)C(Cl)=C(Nc3ccccc3O)C2=O)cc1 3.55 µM [inhibitor, partial curve, poor fit]
C=C[C@@H]1c2cccc(C)c2N(S(=O)(=O)c2ccc(C)cc2)[C@H](c2ccc(OC(C)=O)cc2)C1(C#N)C#N 25.1 µM [inhibitor, single point]
N#CC(C#N)=C1C(=O)N(CCN2CCCCC2)c2ccccc21 25.1 µM [inhibitor, partial curve, poor fit]
O=C(/C=C/c1ccc(OCCCF)cc1)NCc1ccc(Cl)cc1 89.1 µM [inhibitor, single point]
COc1ccc2c(Cn3cnc4cc([N+](=O)[O-])ccc4c3=O)cc(=O)oc2c1 15.8 µM [inhibitor, partial curve, poor fit]
COc1cc(/C=N/NC(=O)c2ccc(COc3cc(C)ccc3C(C)C)cc2)cc(OC)c1O 56.2 µM [inhibitor, partial curve, poor fit]
O=S(=O)(N/N=C/c1ccc2c(c1)OCCO2)c1ccc(Cl)cc1 12.6 µM [inhibitor, partial curve, poor fit]
Cc1ccc(CN(C)C(=O)COC(=O)CSc2ccc([N+](=O)[O-])cc2)cc1 7.94 µM [inhibitor, partial curve, poor fit]
CC(C)(C)C(=O)NCCc1nc2ccccc2n1CCCCOc1ccccc1 89.1 µM [inhibitor, single point]
COc1ccc(-n2nc3c(N4CCC(C(=O)NCc5ccccc5C)CC4)nnc(C)c3c2C)cc1 50.1 µM [inhibitor, partial curve] and 31.6 µM [inhibitor, full curve]
O=Cc1ccc(OCc2cn3ccccc3n2)cc1 50.1 µM [inhibitor, single point]
c1coc(CNc2c3c(nc4ccccc24)CCC3)c1 126 µM [inhibitor, single point]
Cc1cccc(C(=O)Nc2cc(Cl)ccc2-n2cncn2)c1[N+](=O)[O-] 44.7 µM [inhibitor, partial curve]
Cn1c(=O)c([N+](=O)[O-])c(Oc2ccccc2)c2ccccc21 31.6 µM [inhibitor, partial curve, poor fit]
O=C(CN1CCN(Cc2ccccc2F)C1=O)NCc1cccnc1 39.8 µM [inhibitor, single point]
CCCS(=O)(=O)Nc1ccc(Nc2c3ccccc3nc3ccccc23)c(OC)c1 79.4 µM [inhibitor, partial curve]

Among those listed so far, these contain an NH in an aromatic ring:
Potency, inconclusive:
CCC(Sc1nc2ccccc2c2nc(CCc3c(C)n[nH]c3C)nn12)C(=O)Nc1ccc(F)cc1 (stereo not drawn) 89.1 µM [inhibitor, single point]
Cc1ccc(N=Nc2c(=O)[nH]n3c(=O)cc(C)[nH]c23)cc1 31.6 µM [inhibitor, single point]

Next part.

Potency, active:
CC1CC1C(=O)OCC(=O)Nc1ccc2[nH]c(=O)[nH]c2c1 (stereo not drawn) 39.8 µM

Potency, inactive:
O=C(Cn1ncc2c3ccccc3n(Cc3ccc(Cl)cc3)c2c1=O)N1CCCCCC1
O=C(CNC(=O)C1CCCCC1)OCC(=O)c1ccc2c(c1)CCC2
Cc1noc(C)c1S(=O)(=O)N(CC(=O)Nc1ccc(F)cc1F)c1ccc(C(C)C)cc1
CCN(Cc1nc(-c2ccc(OC)c(OC)c2)no1)S(=O)(=O)c1ccc(OC)cc1
Cc1cccc(S(=O)(=O)c2cn(Cc3ccccc3)c3cc(N4CCCCC4)c(F)cc3c2=O)c1
Cc1ccc(S(=O)(=O)C(CNS(=O)(=O)c2cc(F)ccc2F)c2cccs2)cc1 (stereo not drawn)
O=S(=O)(NCc1ccc(F)cc1)c1ccc(N2CCCCS2(=O)=O)cc1
